According to the supplement of paper PMC3334620:
The full ranking holds about 33,000 sequences; the median of “E-score (-0.5 to 0.5)” is about -8e-05, and the highest 2% start at about 0.23. The list shows a part of the results.

The sequences below were run against T1, Nrg2 (UniProt P38082) (assay: PBM E-score (8-mer binding enrichment) (E-score (-0.5 to 0.5)); higher = stronger / more preferred TF binding). Conditions: protein concentration: 100 nM; construct: GST-full length.
T1 sequence: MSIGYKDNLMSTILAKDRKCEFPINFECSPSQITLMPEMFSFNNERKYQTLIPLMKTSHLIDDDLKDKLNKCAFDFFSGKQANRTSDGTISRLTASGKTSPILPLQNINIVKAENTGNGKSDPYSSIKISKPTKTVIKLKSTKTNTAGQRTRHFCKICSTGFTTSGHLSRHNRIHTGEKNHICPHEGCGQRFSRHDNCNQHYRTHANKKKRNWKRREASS
In short: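 For each ungapped eight-base word taken together with its reverse complement, the Universal PBM Analysis Suite assigned an E-score. Binding data came from GST-tagged yeast transcription factors, applied at about 100-200 nM, on universal all-10-mer Agilent arrays made double-stranded by primer extension. Fluorescent anti-GST marked bound protein, and scans were normalised with masliner.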

Sequence | PBM E-score
CGTATCCA | -0.155
GAATAGTA | 0.156
AACACGCC | -0.0502
GGATAAGA | 0.0874
AGTAAATC | 0.227
AAGATTGA | -0.00425
GAAATGTC | -0.04
CGGACAAG | 0.122
CACTCCCG | -0.163
CTAAGAAG | 0.0476
GAGCGACC | -0.168
CAAACCCA | 0.132
GCTAGTGA | 0.0833
AGTACCAC | 0.0108
ACCCTCAT | 0.00139
CGGCGCAG | -0.0724
CCGGTTAG | -0.0403
ATACTCCG | 0.109
TAACAGGA | 0.0311
AACGAGTG | -0.052
CACGCATC | -0.0811
CGAAATGC | 0.109
GCCGATAC | 0.0979
CAACAATA | 0.11
ACCCCCCT | -0.405

Some of the entries above in another layout.
AAGATTGA
  PBM E-score: -0.00425
CGGACAAG
  PBM E-score: 0.122
CACTCCCG
  PBM E-score: -0.163
GCTAGTGA
  PBM E-score: 0.0833

Next entries

Sequence | PBM E-score
AGGATTCA | -0.0415
TACTGTCA | 0.175
CTACCGAA | -0.136
CTGGAGTC | -0.228
CTCCAAGA | 0.036
CGCCTAAC | 0.0838
ACTTCCCG | -0.00327
AGTTAGGA | 0.0365
GGCTAGTA | 0.127
ACCCTCGT | 0.0561
CATGGTAA | 0.0831
AATTGCGC | 0.187
CTTTCCAC | -0.00076
ACGTATAC | 0.124
GTGCGACA | -0.126
AGGAATGA | -0.0278
ACGCAAGT | -0.138
AGTTAGTC | -0.1
CATGGCAC | -0.0253
CGCGGGAC | 0.176
AACATTGA | -0.00836
CCACTCGA | 0.119
CGTGAGAA | -0.00035
CGTATCGA | -0.032
CGTGGGCA | -0.232

Sequence | PBM E-score
CACTTCCG | -0.0433
GACCATCA | -0.04
CAAGTTGA | -0.0127
CTGCCGCC | -0.278
GTTGCCTA | 0.0763
AAAGTTAA | 0.00078
ACTTATAC | 0.0119
AACGGCAG | 0.117
AAGTAAGT | -0.0409
GATCTCGC | 0.144
CAATTCTC | -0.053
ATTGTGTC | 0.212
GTTGGACA | -0.114
ATAGAAAG | 0.0273
ATTTATTG | 0.0706
ATACCGCG | 0.128
GAGCGCTC | 0.193
TACTATGA | 0.185
AGTCGGAC | -0.0923
ATACCAAA | 0.049
AACTTCTC | -0.0214
CCGATTTC | -0.187
CCCCGCCC | 0.118
ACAGATAG | -0.131
ATGCACTC | -0.0395

Sequence | PBM E-score
GCTGGGTA | 0.0249
CCATTGAG | -9e-05
ACTTATGG | -0.0643
AACAGTAT | -0.00385
AACGTTCC | -0.0118
GGAGTTTA | -0.12
CTTGAGAA | -0.0483
ATTTCGTA | 0.0258
AGTTCCTC | -0.0445
CCAACCGG | -0.00871
ATAGACAC | -0.0891
TGGACCAA | -0.0309
ACTAATTA | 0.226
GCCGATCA | 0.0742
GATTCGAA | 0.256
ACCGGGCT | -0.246
AGATACAC | 0.244
CATCACAC | 0.148
AGATTGCT | -0.0335
CACCATCC | -0.259
GAACAATC | 0.0696
AAATCAGC | 0.203
GTTGAATA | 0.156
AGTGATGC | -0.0346
CTTCGCCC | -0.129

Pulled one by one from the entries so far:
Sequence | PBM E-score
ACTAATTA | 0.226
TGGACCAA | -0.0309
AGATACAC | 0.244
AGTGATGC | -0.0346

The results go on.

Sequence | PBM E-score
CATGCAGG | 0.0522
ATATCCAC | 0.0955
AAATGAGC | -0.0221
AGGCGTAT | 0.0997
ATTCGGCG | 0.0312
CGTACCTC | -0.172
GGCGAACA | -0.00418
CAACGCAA | -0.0742
GCTAACAC | 0.0266
CGTCGTCC | -0.0222
CCCGGCGG | -0.136
ACATGGGG | 0.0436
CCCATAAG | -0.0141
AATGGCTA | 0.181
AGCCTCCT | -0.238
ACCCTAGG | 0.0795
CCAAAAGA | 0.014
GGGTATGA | 0.0534
GTTAGCAA | -0.00913
CACCGACG | -0.141
AGGCGAGC | -0.0996
TCGTGAGA | -0.0385
AACCAGGC | 0.00628
CTCGCACC | -0.0477
AAAGGCGC | 0.0165

Sequence | PBM E-score
TCAAGTCA | -0.00884
GTCCGGCA | -0.0633
AAGGCGAA | -0.0762
ACGTTTTC | 0.139
GTCTGAAC | -0.0177
AAGAATTC | -0.0595
AGGCAACC | -0.0327
ATTAAAAA | 0.246
ACCGGCAT | -0.0358
CCAGTGAC | -0.141
ATATGAAC | 0.116
GTCACGGA | -0.00114
CAGATTGG | -0.0418
ATATGGGG | 0.173
AAGAAGTA | 0.0804
AAGATACA | 0.171
GGTCTGTA | 0.0254
CAGTCCCC | -0.125
ATGGGGGC | -0.289
CACCAAGC | -0.13
AGAGAGCG | -0.0462
ACTAGACG | 0.026
CACAAATG | -0.0239
CAACGGAA | 0.121
GTACGGCA | -0.0489

Sequence | PBM E-score
GCGGACCC | 0.158
AAAGACTT | -0.251
ACTGAGCT | -0.0539
CTGAGATA | -0.0803
GTCAATGA | 0.0266
AAAATGCG | 0.0104
CAAGGCGC | 0.047
GGGAAAGA | -0.173
TAAAGATA | 0.0462
GGGTGCAA | 0.197
CTTCACTA | 0.0734
TAGTGCCA | -0.0871
ACCGAGGA | -0.178
ACGCTAGA | -0.16
AGTATGTA | -0.0131
CCATACGA | -0.0461
ACAATCTG | 0.0567
TAGTAAAA | 0.108
ATCAAGTA | 0.0508
AAGCAGTC | -0.135
TATCCTAA | 0.0329
CGACTGTA | -0.312
